The record followed here is paper PMC5725533.

Protein sequences, listed by entry. Tags and fused reporters are not part of them.
UniProt Q80TV8: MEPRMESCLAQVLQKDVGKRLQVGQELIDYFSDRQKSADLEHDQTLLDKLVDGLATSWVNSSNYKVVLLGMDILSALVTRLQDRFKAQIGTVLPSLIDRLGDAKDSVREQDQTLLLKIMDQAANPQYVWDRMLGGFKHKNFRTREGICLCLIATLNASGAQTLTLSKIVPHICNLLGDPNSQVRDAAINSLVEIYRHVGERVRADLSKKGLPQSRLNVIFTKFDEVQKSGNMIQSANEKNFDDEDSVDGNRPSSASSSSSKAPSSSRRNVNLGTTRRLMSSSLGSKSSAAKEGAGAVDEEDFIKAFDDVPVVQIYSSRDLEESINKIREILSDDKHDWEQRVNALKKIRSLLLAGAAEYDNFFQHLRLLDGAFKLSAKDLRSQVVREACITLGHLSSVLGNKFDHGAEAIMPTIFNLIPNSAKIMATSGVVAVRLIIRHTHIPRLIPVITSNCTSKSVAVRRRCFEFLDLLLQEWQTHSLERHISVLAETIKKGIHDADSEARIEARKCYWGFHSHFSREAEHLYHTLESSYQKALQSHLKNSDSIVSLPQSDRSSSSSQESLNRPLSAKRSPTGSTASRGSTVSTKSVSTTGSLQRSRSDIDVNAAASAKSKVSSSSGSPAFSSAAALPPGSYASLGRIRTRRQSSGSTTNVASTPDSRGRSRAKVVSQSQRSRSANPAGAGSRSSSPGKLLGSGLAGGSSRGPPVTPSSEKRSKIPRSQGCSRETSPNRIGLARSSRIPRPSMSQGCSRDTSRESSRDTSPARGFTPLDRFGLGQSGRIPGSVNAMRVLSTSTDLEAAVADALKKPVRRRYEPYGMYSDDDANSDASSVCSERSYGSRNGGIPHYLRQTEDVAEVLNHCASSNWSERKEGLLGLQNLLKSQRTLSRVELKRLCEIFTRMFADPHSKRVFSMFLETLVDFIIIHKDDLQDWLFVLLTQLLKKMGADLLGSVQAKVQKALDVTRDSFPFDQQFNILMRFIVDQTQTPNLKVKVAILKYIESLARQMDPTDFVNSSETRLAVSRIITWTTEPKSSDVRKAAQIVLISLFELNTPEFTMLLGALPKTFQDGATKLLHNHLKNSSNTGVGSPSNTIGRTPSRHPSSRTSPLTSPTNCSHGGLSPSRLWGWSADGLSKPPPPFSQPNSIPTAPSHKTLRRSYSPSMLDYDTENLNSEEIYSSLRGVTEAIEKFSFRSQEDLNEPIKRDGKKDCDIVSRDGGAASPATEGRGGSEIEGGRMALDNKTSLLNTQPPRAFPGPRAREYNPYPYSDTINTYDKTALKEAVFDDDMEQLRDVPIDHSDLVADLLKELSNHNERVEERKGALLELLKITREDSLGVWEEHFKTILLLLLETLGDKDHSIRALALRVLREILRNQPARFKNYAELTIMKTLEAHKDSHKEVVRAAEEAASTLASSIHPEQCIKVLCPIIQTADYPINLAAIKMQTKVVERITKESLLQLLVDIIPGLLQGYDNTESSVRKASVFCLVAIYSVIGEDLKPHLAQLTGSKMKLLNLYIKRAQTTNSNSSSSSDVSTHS
UniProt P28740: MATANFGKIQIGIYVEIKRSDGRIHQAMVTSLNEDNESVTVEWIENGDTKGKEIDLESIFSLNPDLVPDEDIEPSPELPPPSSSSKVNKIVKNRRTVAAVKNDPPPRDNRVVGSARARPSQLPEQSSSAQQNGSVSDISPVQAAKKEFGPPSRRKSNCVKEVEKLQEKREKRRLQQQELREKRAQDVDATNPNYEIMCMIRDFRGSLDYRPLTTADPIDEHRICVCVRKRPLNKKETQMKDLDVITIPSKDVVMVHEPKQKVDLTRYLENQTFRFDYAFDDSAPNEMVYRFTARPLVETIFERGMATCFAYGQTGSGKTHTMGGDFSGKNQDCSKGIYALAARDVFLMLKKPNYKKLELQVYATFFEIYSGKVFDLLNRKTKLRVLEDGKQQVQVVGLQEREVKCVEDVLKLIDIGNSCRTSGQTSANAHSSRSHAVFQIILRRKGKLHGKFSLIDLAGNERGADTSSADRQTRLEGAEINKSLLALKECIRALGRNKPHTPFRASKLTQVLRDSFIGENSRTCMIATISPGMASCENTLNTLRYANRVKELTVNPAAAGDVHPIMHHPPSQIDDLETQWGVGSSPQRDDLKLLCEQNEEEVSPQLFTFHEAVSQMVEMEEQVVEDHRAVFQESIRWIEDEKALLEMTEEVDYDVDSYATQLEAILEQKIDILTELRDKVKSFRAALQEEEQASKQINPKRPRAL
UniProt Q8C0N1: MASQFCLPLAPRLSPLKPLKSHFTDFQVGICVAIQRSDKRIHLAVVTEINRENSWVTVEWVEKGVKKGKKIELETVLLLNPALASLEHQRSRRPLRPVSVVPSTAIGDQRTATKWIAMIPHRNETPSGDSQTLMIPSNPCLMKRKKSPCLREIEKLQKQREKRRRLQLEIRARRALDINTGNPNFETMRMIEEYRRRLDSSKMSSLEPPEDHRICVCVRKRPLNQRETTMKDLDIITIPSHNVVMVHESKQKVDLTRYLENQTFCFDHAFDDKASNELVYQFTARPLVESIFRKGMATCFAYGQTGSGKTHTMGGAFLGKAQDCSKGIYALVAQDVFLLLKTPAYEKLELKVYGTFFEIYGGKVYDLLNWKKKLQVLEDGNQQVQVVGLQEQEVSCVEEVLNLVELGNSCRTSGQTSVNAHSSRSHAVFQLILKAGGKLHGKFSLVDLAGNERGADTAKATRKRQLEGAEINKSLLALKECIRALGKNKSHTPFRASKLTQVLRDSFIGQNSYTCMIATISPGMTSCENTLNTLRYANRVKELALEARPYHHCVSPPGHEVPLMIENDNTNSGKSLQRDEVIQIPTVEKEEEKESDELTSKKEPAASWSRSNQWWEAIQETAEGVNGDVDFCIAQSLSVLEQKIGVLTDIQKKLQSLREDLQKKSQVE
UniProt A2APB8: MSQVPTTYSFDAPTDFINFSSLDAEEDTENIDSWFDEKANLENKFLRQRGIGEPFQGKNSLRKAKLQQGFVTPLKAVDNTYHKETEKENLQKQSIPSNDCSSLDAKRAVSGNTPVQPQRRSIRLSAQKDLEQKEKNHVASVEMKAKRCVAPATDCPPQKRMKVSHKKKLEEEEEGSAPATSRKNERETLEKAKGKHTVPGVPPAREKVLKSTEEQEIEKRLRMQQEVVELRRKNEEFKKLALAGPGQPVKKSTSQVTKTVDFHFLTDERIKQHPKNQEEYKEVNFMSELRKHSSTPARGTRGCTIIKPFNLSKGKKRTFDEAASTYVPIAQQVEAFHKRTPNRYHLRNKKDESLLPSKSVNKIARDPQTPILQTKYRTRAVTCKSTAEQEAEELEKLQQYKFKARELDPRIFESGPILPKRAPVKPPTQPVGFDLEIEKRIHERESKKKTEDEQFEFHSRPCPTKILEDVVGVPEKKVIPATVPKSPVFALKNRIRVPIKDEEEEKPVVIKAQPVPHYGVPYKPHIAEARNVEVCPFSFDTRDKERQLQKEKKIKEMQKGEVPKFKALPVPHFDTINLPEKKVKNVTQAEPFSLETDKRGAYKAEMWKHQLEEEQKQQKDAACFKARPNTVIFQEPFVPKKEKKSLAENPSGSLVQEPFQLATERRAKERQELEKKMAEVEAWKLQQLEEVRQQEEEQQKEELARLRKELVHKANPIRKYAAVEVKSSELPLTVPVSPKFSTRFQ
UniProt Q80WE4: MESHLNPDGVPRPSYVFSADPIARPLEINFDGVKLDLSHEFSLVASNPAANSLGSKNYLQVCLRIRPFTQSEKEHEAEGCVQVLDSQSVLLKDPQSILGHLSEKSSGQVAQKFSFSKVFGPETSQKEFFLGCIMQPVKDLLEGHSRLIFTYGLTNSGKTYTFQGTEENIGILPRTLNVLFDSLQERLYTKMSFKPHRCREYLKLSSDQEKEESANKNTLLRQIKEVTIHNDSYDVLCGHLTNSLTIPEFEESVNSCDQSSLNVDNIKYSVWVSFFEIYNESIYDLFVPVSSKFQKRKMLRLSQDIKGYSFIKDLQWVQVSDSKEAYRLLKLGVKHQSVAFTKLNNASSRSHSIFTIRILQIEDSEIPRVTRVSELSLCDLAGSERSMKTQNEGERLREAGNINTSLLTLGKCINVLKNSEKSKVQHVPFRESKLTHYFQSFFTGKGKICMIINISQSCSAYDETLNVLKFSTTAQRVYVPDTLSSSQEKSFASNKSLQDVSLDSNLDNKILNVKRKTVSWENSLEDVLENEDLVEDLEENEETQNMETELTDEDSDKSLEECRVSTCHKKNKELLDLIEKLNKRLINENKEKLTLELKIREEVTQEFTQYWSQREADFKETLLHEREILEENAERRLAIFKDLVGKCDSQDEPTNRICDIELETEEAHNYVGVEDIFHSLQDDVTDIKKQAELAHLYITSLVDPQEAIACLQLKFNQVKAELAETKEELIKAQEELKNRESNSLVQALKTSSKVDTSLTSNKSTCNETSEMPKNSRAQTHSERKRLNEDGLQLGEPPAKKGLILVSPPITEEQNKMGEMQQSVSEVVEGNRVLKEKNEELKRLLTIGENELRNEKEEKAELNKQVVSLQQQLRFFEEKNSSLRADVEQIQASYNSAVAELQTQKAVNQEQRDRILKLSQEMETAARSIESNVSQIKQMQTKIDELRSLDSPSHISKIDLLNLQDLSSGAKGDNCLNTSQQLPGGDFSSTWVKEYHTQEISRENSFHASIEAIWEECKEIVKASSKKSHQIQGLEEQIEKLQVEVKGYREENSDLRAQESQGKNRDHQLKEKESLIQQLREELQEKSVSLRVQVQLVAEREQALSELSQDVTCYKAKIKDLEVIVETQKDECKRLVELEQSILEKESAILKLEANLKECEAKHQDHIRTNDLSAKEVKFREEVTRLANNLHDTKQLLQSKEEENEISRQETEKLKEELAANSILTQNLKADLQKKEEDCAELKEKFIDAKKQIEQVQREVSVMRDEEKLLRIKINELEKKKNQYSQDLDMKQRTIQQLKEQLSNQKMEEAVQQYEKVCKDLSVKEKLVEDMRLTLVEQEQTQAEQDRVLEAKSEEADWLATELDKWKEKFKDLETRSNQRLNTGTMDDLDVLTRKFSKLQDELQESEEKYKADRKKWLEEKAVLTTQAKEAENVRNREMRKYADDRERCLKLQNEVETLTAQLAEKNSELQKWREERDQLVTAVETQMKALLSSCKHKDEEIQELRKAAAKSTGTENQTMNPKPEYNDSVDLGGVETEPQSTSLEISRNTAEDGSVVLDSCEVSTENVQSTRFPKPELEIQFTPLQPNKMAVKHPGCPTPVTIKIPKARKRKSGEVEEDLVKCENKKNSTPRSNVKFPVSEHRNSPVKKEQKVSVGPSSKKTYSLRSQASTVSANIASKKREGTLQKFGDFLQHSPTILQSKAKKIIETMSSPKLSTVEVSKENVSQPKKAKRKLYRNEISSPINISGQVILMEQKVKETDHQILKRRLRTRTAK
UniProt Q07832: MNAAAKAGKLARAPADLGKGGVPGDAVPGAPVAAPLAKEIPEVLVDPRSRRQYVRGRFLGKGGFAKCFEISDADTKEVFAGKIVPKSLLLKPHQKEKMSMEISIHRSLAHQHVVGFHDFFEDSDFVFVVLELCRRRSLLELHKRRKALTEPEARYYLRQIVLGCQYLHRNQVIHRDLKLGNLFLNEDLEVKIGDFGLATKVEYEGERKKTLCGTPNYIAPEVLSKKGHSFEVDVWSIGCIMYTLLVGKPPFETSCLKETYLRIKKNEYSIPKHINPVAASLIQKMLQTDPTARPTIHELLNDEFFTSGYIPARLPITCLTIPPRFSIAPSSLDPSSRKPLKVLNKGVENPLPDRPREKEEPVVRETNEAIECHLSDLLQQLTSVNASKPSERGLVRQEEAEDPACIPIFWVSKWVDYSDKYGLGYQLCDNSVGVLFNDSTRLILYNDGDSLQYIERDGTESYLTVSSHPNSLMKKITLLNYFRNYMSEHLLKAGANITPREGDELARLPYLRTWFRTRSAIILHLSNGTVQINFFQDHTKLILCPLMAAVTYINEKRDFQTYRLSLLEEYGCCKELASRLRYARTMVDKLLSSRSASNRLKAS

Sequences and labels used below:
B1: Kif22 (kinesin-10) (protein, UniProt Q3V300 1-660)
chain: MSLRAKTCPQRREMASATSGPGRCVSKGGLGRRPPLARVRVAVRLRPFMDGETEAKELPCVRAIDSCSLEVANWKKYQETLKYQFDAFYGEKSTQQEVYVGSVQPILRHLLEGQNASVLAYGPTGAGKTHTMLGSPEQPGVIPRALMDLLQLAREESAEGRPWDVSVAMSYLEIYQEKVLDLLDPASGDLVIREDCRGNILIPGLTQKPITSFSDFEQHFLPASRNRAVGATRLNQRSSRSHAVLLVKVDQRERLTPFRQREGKLYLIDLAGSEDNRRTGNQGIRLKESGAINTSLFVLGKVVDALNQGLPRIPYRDSKLTRLLQDSLGGSAHSILIANIAPERRFYQDTISALNFTARSKEVINRPFTNESLQPHALAPVKLSQKELLGPSEAKKAKGPEEESTGSPESTAAPASASQKLSLLQKLSNMDPAMLENLLSMERLLGSQGSQGTPLLNTPKRERMVLMKTVEEKNLEIERLKMKQKELEAKVLAQEAPDPREKENTPTILQPPASYSGTVAKPLKKAVVMPLQRIQKQRESSNQIQLLKKGPKRKLEPSPESEAVEKDEDYWEVQISPELLAHGRKKLLDLLNEGSARELRSLQRIGQKKAQLIVGWRELHGPFSEVEDLEQVEGISGKQVESFLKANLLSLAASQHSGPS
B2: Kif2C (kinesin-13) (protein, UniProt Q922S8 1-721)
chain: MESLHARLFPGLSINIQRSNGLIHPANISTVNVEKSCVSVEWIEGGTTKGKEIDIDDVAAINPELLQLLPLRPKDSLPLQENVTVPKQKRKSVNSKIPALKEGLRSRSTRMSTVSEVRIPAQENEMEVELPVPTNSRKQFAIPSHPRASCSTVTELPLLMVSEEAEEQAHSTRSTSSANPGNSVRRKSCIVKEMEKMKNKREEKRAQNSELRIKRAQEYDSSFPNWEFARMIKEFRVTMECSPLTVTDPIEEHRICVCVRKRPLNKQELAKKEIDVISVPSKCLLLVHEPKLKVDLTKYLENQAFCFDFAFDETASNEVVYRFTARPLVQTIFEGGKATCFAYGQTGSGKTHTMGGDLSGKSQNASKGIYAMASRDVFLLKNQPRYRNLNLEVYVTFFEIYNGKVFDLLNKKAKLRVLEDSRQQVQVVGLQEYLVTCADDVIKMINMGSACRTSGQTFANSNSSRSHACFQILLRTKGRLHGKFSLVDLAGNERGADTSSADRQTRMEGAEINKSLLALKECIRALGQNKAHTPFRESKLTQVLRDSFIGENSRTCMIAMISPGISSCEYTLNTLRYADRVKELSPHSGPSGEQPVQMETEVMEASSNGTSLTGNEEEELSSQMSSFNEAMTQIRELEERALEELREIIQQGPNWLELSEMTDQPDYDLETFVNKAESALTQQAKQAKHFSALREVIKALRLAMQLEEQASKQINSKKRHQ
B3: KifC1 (kinesin-14) (protein, UniProt Q9QWT9 1-674)
chain: MDVQAQRPPLLEVKRNVELKAALVKSSSRVPLSASRLKRGPDQMEDALEPAKKRTRVMGAVTKVDTSRPRGPLLSTVSQTQGHTAAQKGPKKTGPRGCSAIGTVLRSQKPVPAAPAQKPGTSTAPVVVGKRAGKRPAWDLKGQLCDLNEELKRYREKTQTLELENRGLREQLREVQEQATTLGTERNTLEGELASVRSRAEQDQQRLETLSARVLELEECLGTRERLLQELQGERLQLQEERSTLSTQLEEQERRFQATEAALSSSQEEVVCLRQKTEAQVTLLAEQGDRLYGLEMERRRLHNQLQELKGNIRVFCRVRPVLEGESTPSPGFLVFPPGPAGPSDPPTGLSLSRSDDRRSTLTGAPAPTVRHDFSFDRVFPPGSKQEEVFEEIAMLVQSALDGYPVCIFAYGQTGSGKTFTMEGGPRGDPQLEGLIPRAMRHLFSVAQEMSGQGWTYSFVASYVEIYNETVRDLLATGPRKGQGGECEIRRASPGSEELTVTNARYVPVSCEKEVEALLHLAHQNRAVAHTAQNKRSSRSHSVFQLQISGEHAARGLQCGAPLNLVDLAGSERLDPGLHLGPGERDRLRETQAINSSLSTLGLVIMALSNKESHVPYRNSKLTYLLQNSLGGSAKMLMFVNISPLEENVSESLNSLRFASKVNQCVIGTAQANKK
B4: nuclear distribution E neurodevelopment protein 1 (Nde1) (protein, UniProt Q9CZA6 1-344)
chain: MEDSGKTFESEEEETNYWRDLAMTYKQRAENTQEELREFQEGSREYEAELEAQLQQIETRNRDLLSENNRLRMELESVKEKFEMQHSEGYRQISALEDDLAQTKAIKDQLQKYIRELEQANDDLERAKRATIMSLEDFEQRLNQAIERNAFLESELDEKENLLESVQRLKDEARDLRQELAVQQKQDKPRTPMPGSGQAKRTDMAVQATGSVPSTPVAHRGPSSGLNTPGMFRRGLDSSTSGTPLTPAARISALNIVGDLLRKVGALESKLASCRNFMYDQSPSRTSGPASGRGTKNRDGVDRRPGSTSVGDKGSGKRLEFGKPASEPASPALPSAQGVVKLLL
B5: Kif18A (kinesin-8) (protein, UniProt Q91WD7 1-886)
chain: MSGTEEDLCHRMKVVVRVRPENTKEKAVQFCKVVHVVDKHILSFDPKQEEISFFHRKKTTNFDITKRQNKDLKFVFDAVFDETSTQMEVFEHTTKPILHSFLNGYNCTVFAYGATGSGKTHTMLGSAAEPGVMYLTMLDLFKCIDEIKEEKECSTAVSYLEVYNEQIRDLLTNSGPLAVREDSQKGVVVQGLTLHQPKSSEEILQLLDNGNKNRTQHPTDVNAVSSRSHAVFQIYLRQQDKTASINQNVRIAKMSLIDLAGSERASVSGAKGSRFVEGTNINKSLLALGNVINALANTKRRNQHIPYRNSKLTRLLKDSLGGNCQTIMIAAVSPSSLFYDDTYNTLKYANRAKEIKSSLKSNVLNLNSHISQYVKICNMQKAEILMLKEKLKAYEEQKALSDRNDCAKLVHSNPEDRETERFQEILNCLFQNREGIRQEYLKLEMLLKANALKSSYHQQCHKQIEMMCSEDKVEKATCKRDHRLEKLKTNSCFLEKKKEEVSKQFDENTNWLHRVENEMRLLGQNGDIPEALNKELHCHHLHLQNKELKTQMAHMTALACLQEQQHKQTEAVLNALLPVLRKQYWKLKETGLSNAAFDSDFKDIEHLVERKKVVAWADQTNEHSNRNDLPGISLLMTFPQLEPIQSISCCTSVSDPNVLKLTPQRRTRRKIIPSPLKVQHTQKSALSESTQLNDSFSKELQPIVYTPEDCKKAQDLFPSLTRTSSQSANVMNDNSQKALCRIESPLSRTECKQGLYSTSTLCDSIRGLKNKWPEQEPLASSKSSVHRIESSSFSTKDSMPESAGVPSYMAMTTAAKRKWKQMSSTSNASIKSDESCGFAKRIRRDNSSVKPMQENRLKVGYKRNTNKTNSNMLRKFRRNTSKENVQ
B6: Clasp2 (protein, UniProt Q8BRT1 1-1286)
chain: MRRLICKRICDYKSFDDEESVDGNRPSSAASAFKVPAPKTPGNPVSSARKPGSAGGPKVGGPSKEGGAGAVDEDDFIKAFTDVPSVQIYSSRELEETLNKIREILSDDKHDWDQRANALKKIRSLLVAGAAQYDCFFQHLRLLDGALKLSAKDLRSQVVREACITVAHLSTVLGNKFDHGAEAIVPTLFNLVPNSAKVMATSGCAAIRFIIRHTHVPRLIPLITSNCTSKSVPVRRRSFEFLDLLLQEWQTHSLERHAAVLVETIKKGIHDADAEARVEARKTYMGLRNHFPGEAETLYNSLEPSYQKSLQTYLKSSGSVASLPQSDRSSSSSQESLNRPFSSKWSTANPSTVAGRVSVGGSKANPLPGSLQRSRSDIDVNAAAGAKAHHAAGQAVRSGRLGAGALNPGSYASLEDTSDKMDGTASDDGRVRAKLSTPLVAVGNAKTDSRGRSRTKMVSQSQPGSRSGSPGRVLTTTALSTVSSGAQRVLVNSASAQKRSKIPRSQGCSREASPSRLSVARSSRIPRPSVSQGCSREASRESSRDTSPVRSFQPLGPGYGISQSSRLSSSVSAMRVLNTGSDVEEAVADALLLGDIRTKKKPARRRYESYGMHSDDDANSDASSACSERSYSSRNGSIPTYMRQTEDVAEVLNRCASSNWSERKEGLLGLQNLLKNQRTLSRIELKRLCEIFTRMFADPHGKVFSMFLETLVDFIQVHKDDLQDWLFVLLTQLLKKMGADLLGSVQAKVQKALDITRESFPNDLQFNILMRFTVDQTQTPSLKVKVAILKYIETLAKQMDPRDFTNSSETRLAVSRVITWTTEPKSSDVRKAAQSVLISLFELNTPEFTMLLGALPKTFQDGATKLLHNHLRNTGNGTQSSMGSPLTRPTPRSPANWSSPLTSPTNTSQNTLSPSAFDYDTENMNSEDIYSSLRGVTEAIQNFSFRSQEDMSEPVRRDPKKEDGDTICSGPGMSDPRAGGDAADGSQPALDNKASLLHSMPLHSSPRSRDYNPYNYSDSISPFNKSALKEAMFDDDADQFPDDLSLDHSDLVAELLKELSNHNERIEERKIALYELMKLTQEESFSVWDEHFKTILLLLLETLGDKEPTIRALALKVLKEILRHQPARFKNYAELTVMKTLEAHKDPHKEVVRSAEEAASVLATSISPEQCIKVLCPIIQTADYPINLAAIKMQTKVIERVSKETLNMLLPEIMPGLIQGYDNSESSVRKACVFCLVAVHAVIGDELKPHLSQLTGSKMKLLNLYIKRAQTGSAGADPTADVSGQS

Results are given in words; binding and its absence hold for the method and conditions named. In cells and extracts the contact can be indirect. These calls come from enrichment with a bait or labelling near it, and not all partners need be listed. Sequences can lack the tags named with a protein.

The target of one assay is T1, GST-tagged EML1 N-ter (EML1 N-terminal domain, amino acids 1-174) (UniProt O00423).
T1 sequence: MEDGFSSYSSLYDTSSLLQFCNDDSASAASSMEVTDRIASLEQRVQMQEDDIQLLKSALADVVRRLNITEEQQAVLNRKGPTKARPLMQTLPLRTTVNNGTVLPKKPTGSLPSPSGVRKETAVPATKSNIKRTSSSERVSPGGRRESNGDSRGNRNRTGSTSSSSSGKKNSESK
Put plainly: affinity purification with mass spectrometry; purified GST-EML1 N-ter (4 μg) coupled to Glutathione-Agarose resin, incubated overnight with E13.5 mouse embryonic cortex extract; lysis buffer Tris HCl 50 mM, NaCl 150 mM, EDTA 1 mM pH 8, 1% NP-40; bound fractions by nano LC-MS/MS, label-free XIC quantification against GST control; two independent pull-downs; only the target purified.
On to B1, for which the binding result is on record as “binds”. On the same count and under the same terms, the result for B2 reads “binds”. Same read-out and setting: as for B3, the entry is “binds”. For the molecule B4, the binding entry is “binds”. Still for that read-out and setting: as for B5, the entry is “binds”.

Regarding B6, the binding result was “binds”.

The next assay has as its target T1, GST-tagged EML1 N-ter (EML1 N-terminal domain, amino acids 1-174). The description is as above. The source holds these as a separate data set.
Turning to Clasp1 (from UniProt Q80TV8 1-1535), the binding entry is “binds”.

Turning to “Eml1 (Echinoderm microtubule-associated protein like-1) (from UniProt Q05BC3 1-814)”, the binding result was “binds”. For the molecule “Kif2A (kinesin-13) (from UniProt P28740 1-705)”, the binding entry is listed as “binds”. Still for that read-out and setting: as for “Kif2B (kinesin-13) (from UniProt Q8C0N1 1-668)”, the entry is “binds”. On the same count and under the same terms, the result for “Kif10 (Cenp-E) (from UniProt Q6RT24 1-2474)” reads “binds”; that for “Tpx2 (targeting protein for Xklp2) (from UniProt A2APB8 1-745)”, “binds”; that for “dynein heavy chain 1 (Dync1h1) (from UniProt Q9JHU4 1-4644)”, “binds”. The same measure, in the same setting: as for “kinesin superfamily protein (Kif) 20b (from UniProt Q80WE4 1-1774)”, the entry is “binds”; as for “polo kinase 1 (Plk1) (from UniProt Q07832 1-603)”, “binds”.
